Laboratory results as given in PMC6379680, “The Leishmania PABP1–eIF4E4 interface: a novel 5′–3′ interaction architecture for trans-spliced mRNAs” (Nucleic Acids Research, 2018).
No constants are given. Whether binding was seen depends on the method and setting. Some binding calls cover weakened binding; strength is not graded here.

Molecular target: PABP1(J), the PABC domain of Leishmania major PABP1 prepared as segment J (Leishmania major) (UniProt E9AFX7)
Assay: crystal structure; vapour diffusion at 22°C; PABP1(J) alone and PABP1(J) co-crystallised with the eIF4E4 PAM2 peptide; about 2 Å; both purified

binding: binds
B1: PABP1(J), the PABC domain of Leishmania major PABP1 prepared as segment J (domain or fragment, UniProt E9AFX7 482-560)
chain: LPPITPQELESMSPQEQRAALGDRLFLKVYEIAPELAPKITGMFLEMKPKEAYELLNDQKRLEERVTEALCVLKAHQTA
